Patent US20230101835A1
Results are given in words; binding and its absence hold for the method and conditions named. Some entries that bind do so weakly or less than the wild type. Values belong to the binder of their own block, whether it stands above or below them.

Protein sequences, listed by entry. Tags and fused reporters are not part of them. Residues count along the entry.
UniProt P01024, residues 1002-1303: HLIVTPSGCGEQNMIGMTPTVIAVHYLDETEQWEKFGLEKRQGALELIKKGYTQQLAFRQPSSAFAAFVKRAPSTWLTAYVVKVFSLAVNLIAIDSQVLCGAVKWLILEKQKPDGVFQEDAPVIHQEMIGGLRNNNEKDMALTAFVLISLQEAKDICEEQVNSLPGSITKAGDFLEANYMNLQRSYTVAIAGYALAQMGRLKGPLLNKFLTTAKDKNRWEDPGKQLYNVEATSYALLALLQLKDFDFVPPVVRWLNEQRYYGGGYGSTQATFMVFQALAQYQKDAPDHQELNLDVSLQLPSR

Legend:
plasma derived C3b [1] = target: plasma derived C3b (UniProt P01024); experiment: ELISA on plate-immobilised plasma derived C3b, detection with polyclonal goat anti-human FH antibody, A450
recombinant C3d = recombinant C3d (UniProt P01024); experiment: ELISA on plate-immobilised recombinant C3d, detection with polyclonal goat anti-human FH antibody, A450
plasma derived C3b [2] = target: plasma derived C3b (UniProt P01024); experiment: ELISA on plate-coated C3b (5 µg/ml)
[3] = target: T1, recombinant human CRP (human) (UniProt P02741); experiment: ELISA on plate-coated recombinant human CRP (2 µg/ml)
T1 sequence (looked up): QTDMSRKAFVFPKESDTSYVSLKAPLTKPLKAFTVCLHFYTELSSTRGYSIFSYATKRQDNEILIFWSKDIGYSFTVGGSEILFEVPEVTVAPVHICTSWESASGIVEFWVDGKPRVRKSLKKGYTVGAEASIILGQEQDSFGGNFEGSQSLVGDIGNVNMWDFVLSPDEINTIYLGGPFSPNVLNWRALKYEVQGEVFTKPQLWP

- binding (plasma derived C3b [1]): binds
- binding (recombinant C3d): binds
B1: FH^R1-2∧1-5∧18-20 (protein)
chain: EATFCDFPKINHGILYDEEKYKPFSQVPTGEVFYYSCEYNFVSPSKSFWTRITCTEEGWSPTPKCLRLCFFPFVENGHSESSGQTHLEGDTVQIICNTGYRLQNNENNISCVERGWSTPPKCRSTDTSVDEDCNELPPRRNTEILTGSWSDQTYPEGTQAIYKCRPGYRSLGNIIMVCRKGEWVALNPLRKCQKRPCGHPGDTPFGTFTLTGGNVFEYGVKAVYTCNEGYQLLGEINYRECDTDGWTNDIPICEVVKCLPVTAPENGKIVSSAMEPDREYHFGQAVRFVCNSGYKIEGDEEMHCSDDGFWSKEKPKCVEISCKSPDVINGSPISQKIIYKENERFQYKCNMGYEYSERGDAVCTESGWRPLPSCEEKSCDNPYIPNGDYSPLRIKHRTGDEITYQCRNGFYPATRGNTAKCTSTGWIPAPRCTSGSGGGGGTTSCVNPPTVQNAYIVSRQMSKYPSGERVRYQCRSPYEMFGDEEVMCLNGNWTEPPQCKDSTGKCGPPPPIDNGDITSFPLSVYAPASSVEYQCQNLYQLEGNKRITCRNGQWSEPPKCLHPCVISREIMENYNIALRWTAKQKLYSRTGESVEFVCKRGYRLSSRSHTLRTTCWDGKLEYPTCAKR
modifications: glycosylation sites on FHR1 CCP domain 2 and FH CCP domain 18

- binding (plasma derived C3b [1]): binds
- binding (recombinant C3d): binds
B2: FH^1-5∧18-20∧R1-2 (protein)
chain: EDCNELPPRRNTEILTGSWSDQTYPEGTQAIYKCRPGYRSLGNIIMVCRKGEWVALNPLRKCQKRPCGHPGDTPFGTFTLTGGNVFEYGVKAVYTCNEGYQLLGEINYRECDTDGWTNDIPICEVVKCLPVTAPENGKIVSSAMEPDREYHFGQAVRFVCNSGYKIEGDEEMHCSDDGFWSKEKPKCVEISCKSPDVINGSPISQKIIYKENERFQYKCNMGYEYSERGDAVCTESGWRPLPSCEEKSCDNPYIPNGDYSPLRIKHRTGDEITYQCRNGFYPATRGNTAKCTSTGWIPAPRCTSGSGGGGVDTTSCVNPPTVQNAYIVSRQMSKYPSGERVRYQCRSPYEMFGDEEVMCLNGNWTEPPQCKDSTGKCGPPPPIDNGDITSFPLSVYAPASSVEYQCQNLYQLEGNKRITCRNGQWSEPPKCLHPCVISREIMENYNIALRWTAKQKLYSRTGESVEFVCKRGYRLSSRSHTLRTTCWDGKLEYPTCAKRGTEATFCDFPKINHGILYDEEKYKPFSQVPTGEVFYYSCEYNFVSPSKSFWTRITCTEEGWSPTPKCLRLCFFPFVENGHSESSGQTHLEGDTVQIICNTGYRLQNNENNISCVERGWSTPPKCRSTDTS
modifications: glycosylation sites on FHR1 CCP domain 2 and FH CCP domain 18

- binding (plasma derived C3b [2]): binds
- binding [3]: binds
B3: ND-FHL1 (FH^R1-2∧1-5∧L6-L7) (protein)
chain: EATFCDFPKINHGILYDEEKYKPFSQVPTGEVFYYSCEYNFVSPSKSFWTRITCTEEGWSPTPKCLRLCFFPFVENGHSESSGQTHLEGDTVQIICNTGYRLQNNENNISCVERGWSTPPKCRSTDTSVDEDCNELPPRRNTEILTGSWSDQTYPEGTQAIYKCRPGYRSLGNIIMVCRKGEWVALNPLRKCQKRPCGHPGDTPFGTFTLTGGNVFEYGVKAVYTCNEGYQLLGEINYRECDTDGWTNDIPICEVVKCLPVTAPENGKIVSSAMEPDREYHFGQAVRFVCNSGYKIEGDEEMHCSDDGFWSKEKPKCVEISCKSPDVINGSPISQKIIYKENERFQYKCNMGYEYSERGDAVCTESGWRPLPSCEEKSCDNPYIPNGDYSPLRIKHRTGDEITYQCRNGFYPATRGNTAKCTSTGWIPAPRCTSGSGGGGGTKHGGLYHENMRRPYFPVAVGKYYSYYCDEHFETPSGSYWDHIHCTQDGWSPAVPCLRKCYFPYLENGYNQNYGRKFVQGKSIDVACHPGYALPKAQTTVTCMENGWSPTPRCIRVSFTL
modifications: glycosylation site on FHR1 CCP domain 2

- binding (plasma derived C3b [2]): binds
- binding [3]: binds
B4: CD-FHL1 (FH^1-5∧L6-L7∧R1-2) (protein)
chain: EDCNELPPRRNTEILTGSWSDQTYPEGTQAIYKCRPGYRSLGNIIMVCRKGEWVALNPLRKCQKRPCGHPGDTPFGTFTLTGGNVFEYGVKAVYTCNEGYQLLGEINYRECDTDGWTNDIPICEVVKCLPVTAPENGKIVSSAMEPDREYHFGQAVRFVCNSGYKIEGDEEMHCSDDGFWSKEKPKCVEISCKSPDVINGSPISQKIIYKENERFQYKCNMGYEYSERGDAVCTESGWRPLPSCEEKSCDNPYIPNGDYSPLRIKHRTGDEITYQCRNGFYPATRGNTAKCTSTGWIPAPRCTSGSGGGGVDTKHGGLYHENMRRPYFPVAVGKYYSYYCDEHFETPSGSYWDHIHCTQDGWSPAVPCLRKCYFPYLENGYNQNYGRKFVQGKSIDVACHPGYALPKAQTTVTCMENGWSPTPRCIRVSFTLGTEATFCDFPKINHGILYDEEKYKPFSQVPTGEVFYYSCEYNFVSPSKSFWTRITCTEEGWSPTPKCLRLCFFPFVENGHSESSGQTHLEGDTVQIICNTGYRLQNNENNISCVERGWSTPPKCRSTDTS
modifications: glycosylation site on FHR1 CCP domain 2
